The other results are listed elsewhere or left out.
Columns and labels:
Assay in all cases: glycan array binding signal (z-score within array); higher = stronger binding
Settings in all cases: glycan notation: IUPAC condensed, linker removed
[1] = molecular target: Gal(b1-4)GlcNAc(b1-3)Gal(b1-4)GlcNAc(b1-2)Man(a1-3)[Gal(b1-4)GlcNAc(b1-3)Gal(b1-4)GlcNAc(b1-2)Man(a1-6)]Man(b1-4)GlcNAc(b1-4)[Fuc(a1-6)]GlcNAc
Procedure, shortened: (§1)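 The Consortium for Functional Glycomics database supplied 3228 glycan arrays, of which those lacking an available protein sequence were dropped. The binding signal, a within-array Z-score, was averaged across arrays of the same protein sequence and across linkers. Negative scores can be read as non-binding.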

[2] = molecular target: Gal(b1-4)GlcNAc(b1-3)Gal(b1-4)GlcNAc(b1-2)[Gal(b1-4)GlcNAc(b1-3)Gal(b1-4)GlcNAc(b1-6)]Man(a1-6)[Gal(b1-4)GlcNAc(b1-3)Gal(b1-4)GlcNAc(b1-2)Man(a1-3)]Man(b1-4)GlcNAc(b1-4)GlcNAc
Procedure, shortened: as §1

[3] = molecular target: Gal(b1-4)GlcNAc(b1-3)Gal(b1-4)GlcNAc(b1-2)[Gal(b1-4)GlcNAc(b1-3)Gal(b1-4)GlcNAc(b1-6)]Man(a1-6)[Gal(b1-4)GlcNAc(b1-3)Gal(b1-4)GlcNAc(b1-2)Man(a1-3)]Man(b1-4)GlcNAc(b1-4)[Fuc(a1-6)]GlcNAc
Procedure, shortened: as §1

[4] = molecular target: Gal(b1-4)GlcNAc(b1-3)Gal(b1-4)GlcNAc(b1-3)Gal(b1-4)GlcNAc
Procedure, shortened: as §1

[5] = molecular target: Gal(b1-4)GlcNAc(b1-3)Gal(b1-4)GlcNAc(b1-3)Gal(b1-4)GlcNAc(b1-2)Man(a1-3)[Gal(b1-4)GlcNAc(b1-3)Gal(b1-4)GlcNAc(b1-3)Gal(b1-4)GlcNAc(b1-2)Man(a1-6)]Man(b1-4)GlcNAc(b1-4)GlcNAc
Procedure, shortened: as §1

[6] = molecular target: Gal(b1-4)GlcNAc(b1-3)Gal(b1-4)GlcNAc(b1-3)Gal(b1-4)GlcNAc(b1-2)Man(a1-3)[Gal(b1-4)GlcNAc(b1-3)Gal(b1-4)GlcNAc(b1-3)Gal(b1-4)GlcNAc(b1-2)Man(a1-6)]Man(b1-4)GlcNAc(b1-4)[Fuc(a1-6)]GlcNAc
Procedure, shortened: as §1

[7] = molecular target: Gal(b1-4)GlcNAc(b1-3)Gal(b1-4)GlcNAc(b1-3)Gal(b1-4)GlcNAc(b1-2)[Gal(b1-4)GlcNAc(b1-3)Gal(b1-4)GlcNAc(b1-3)Gal(b1-4)GlcNAc(b1-6)]Man(a1-6)[Gal(b1-4)GlcNAc(b1-3)Gal(b1-4)GlcNAc(b1-3)Gal(b1-4)GlcNAc(b1-2)Man(a1-3)]Man(b1-4)GlcNAc(b1-4)[Fuc(a1-6)]GlcNAc
Procedure, shortened: as §1

[8] = molecular target: Gal(b1-4)GlcNAc(b1-3)Gal(b1-4)GlcNAc(b1-3)Gal(b1-4)GlcNAc(b1-3)Gal(b1-4)GlcNAc(b1-2)Man(a1-3)[Gal(b1-4)GlcNAc(b1-3)Gal(b1-4)GlcNAc(b1-3)Gal(b1-4)GlcNAc(b1-3)Gal(b1-4)GlcNAc(b1-2)Man(a1-6)]Man(b1-4)GlcNAc(b1-4)GlcNAc
Procedure, shortened: as §1

[9] = molecular target: Gal(b1-4)GlcNAc(b1-3)Gal(b1-4)GlcNAc(b1-3)Gal(b1-4)GlcNAc(b1-3)Gal(b1-4)GlcNAc(b1-2)Man(a1-3)[Gal(b1-4)GlcNAc(b1-3)Gal(b1-4)GlcNAc(b1-3)Gal(b1-4)GlcNAc(b1-3)Gal(b1-4)GlcNAc(b1-2)Man(a1-6)]Man(b1-4)GlcNAc(b1-4)[Fuc(a1-6)]GlcNAc
Procedure, shortened: as §1

[10] = molecular target: Gal(b1-4)GlcNAc(b1-3)Gal(b1-4)GlcNAc(b1-3)Gal(b1-4)GlcNAc(b1-3)Gal(b1-4)GlcNAc(b1-2)[Gal(b1-4)GlcNAc(b1-3)Gal(b1-4)GlcNAc(b1-3)Gal(b1-4)GlcNAc(b1-3)Gal(b1-4)GlcNAc(b1-6)]Man(a1-6)[Gal(b1-4)GlcNAc(b1-3)Gal(b1-4)GlcNAc(b1-3)Gal(b1-4)GlcNAc(b1-3)Gal(b1-4)GlcNAc(b1-2)Man(a1-3)]Man(b1-4)GlcNAc(b1-4)[Fuc(a1-6)]GlcNAc
Procedure, shortened: as §1

[11] = molecular target: Gal(b1-4)GlcNAc(b1-3)Gal(b1-4)GlcNAc(b1-3)Gal(b1-4)GlcNAc(b1-3)Gal(b1-4)GlcNAc(b1-3)Gal(b1-4)GlcNAc(b1-2)Man(a1-3)[Gal(b1-4)GlcNAc(b1-3)Gal(b1-4)GlcNAc(b1-3)Gal(b1-4)GlcNAc(b1-3)Gal(b1-4)GlcNAc(b1-3)Gal(b1-4)GlcNAc(b1-2)Man(a1-6)]Man(b1-4)GlcNAc(b1-4)GlcNAc
Procedure, shortened: as §1

[12] = molecular target: Gal(b1-4)GlcNAc(b1-3)Gal(b1-4)GlcNAc(b1-3)Gal(b1-4)GlcNAc(b1-3)Gal(b1-4)GlcNAc(b1-3)Gal(b1-4)GlcNAc(b1-2)Man(a1-3)[Gal(b1-4)GlcNAc(b1-3)Gal(b1-4)GlcNAc(b1-3)Gal(b1-4)GlcNAc(b1-3)Gal(b1-4)GlcNAc(b1-3)Gal(b1-4)GlcNAc(b1-2)Man(a1-6)]Man(b1-4)GlcNAc(b1-4)[Fuc(a1-6)]GlcNAc
Procedure, shortened: as §1

[13] = molecular target: Gal(b1-4)GlcNAc(b1-3)Gal(b1-4)GlcNAc(b1-3)Gal(b1-4)GlcNAc(b1-3)Gal(b1-4)GlcNAc(b1-3)Gal(b1-4)GlcNAc(b1-2)[Gal(b1-4)GlcNAc(b1-3)Gal(b1-4)GlcNAc(b1-3)Gal(b1-4)GlcNAc(b1-3)Gal(b1-4)GlcNAc(b1-3)Gal(b1-4)GlcNAc(b1-6)]Man(a1-6)[Gal(b1-4)GlcNAc(b1-3)Gal(b1-4)GlcNAc(b1-3)Gal(b1-4)GlcNAc(b1-3)Gal(b1-4)GlcNAc(b1-3)Gal(b1-4)GlcNAc(b1-2)Man(a1-3)]Man(b1-4)GlcNAc(b1-4)[Fuc(a1-6)]GlcNAc
Procedure, shortened: as §1

[14] = molecular target: Gal(b1-4)GlcNAc(b1-3)Gal(b1-4)GlcNAc(b1-3)Gal(b1-4)GlcNAc(b1-3)Gal(b1-4)GlcNAc(b1-3)Gal(b1-4)GlcNAc(b1-3)Gal(b1-4)GlcNAc(b1-2)Man(a1-3)[Gal(b1-4)GlcNAc(b1-3)Gal(b1-4)GlcNAc(b1-3)Gal(b1-4)GlcNAc(b1-3)Gal(b1-4)GlcNAc(b1-3)Gal(b1-4)GlcNAc(b1-3)Gal(b1-4)GlcNAc(b1-2)Man(a1-6)]Man(b1-4)GlcNAc(b1-4)GlcNAc
Procedure, shortened: as §1

[15] = molecular target: Gal(b1-4)GlcNAc(b1-3)Gal(b1-4)GlcNAc(b1-3)GalNAc
Procedure, shortened: as §1

[16] = molecular target: Gal(b1-4)GlcNAc(b1-3)Gal(b1-4)GlcNAc(b1-3)[Gal(b1-4)GlcNAc(b1-3)Gal(b1-4)GlcNAc(b1-6)]GalNAc
Procedure, shortened: as §1

[17] = molecular target: Gal(b1-4)GlcNAc(b1-3)Gal(b1-4)GlcNAc(b1-6)[Gal(b1-3)]GalNAc
Procedure, shortened: as §1

[18] = molecular target: Gal(b1-4)GlcNAc(b1-3)Gal(b1-4)[Fuc(a1-3)]GlcNAc(b1-3)Gal(b1-4)[Fuc(a1-3)]GlcNAc
Procedure, shortened: as §1

[19] = molecular target: Gal(b1-4)GlcNAc(b1-3)GalNAc
Procedure, shortened: as §1

[20] = molecular target: Gal(b1-4)GlcNAc(b1-3)[Fuc(a1-3)GlcNAc(b1-6)]Gal(b1-4)Glc
Procedure, shortened: as §1

[21] = molecular target: Gal(b1-4)GlcNAc(b1-3)[Gal(b1-4)GlcNAc(b1-6)]Gal(b1-4)GlcNAc
Procedure, shortened: as §1

[22] = molecular target: Gal(b1-4)GlcNAc(b1-3)[GlcNAc(b1-6)]Gal(b1-4)GlcNAc
Procedure, shortened: as §1

[23] = molecular target: Gal(b1-4)GlcNAc(b1-6)Gal(b1-4)GlcNAc
Procedure, shortened: as §1

[24] = molecular target: Gal(b1-4)GlcNAc(b1-6)GalNAc
Procedure, shortened: as §1

[25] = molecular target: Gal(b1-4)GlcNAc(b1-6)[Gal(b1-3)]GalNAc
Procedure, shortened: as §1

[26] = molecular target: Gal(b1-4)GlcNAc(b1-6)[Gal(b1-4)GlcNAc(b1-3)]GalNAc
Procedure, shortened: as §1

Gal(b1-4)GlcNAc6P = molecular target: Gal(b1-4)GlcNAc6P
Procedure, shortened: as §1

Gal(b1-6)Gal = molecular target: Gal(b1-6)Gal
Procedure, shortened: as §1

Gal3S(b1-3)GalNAc = molecular target: Gal3S(b1-3)GalNAc
Procedure, shortened: as §1

Gal3S(b1-3)GlcNAc = molecular target: Gal3S(b1-3)GlcNAc
Procedure, shortened: as §1

[27] = molecular target: Gal3S(b1-3)[Fuc(a1-4)]GlcNAc
Procedure, shortened: as §1

Gal3S(b1-4)Glc = molecular target: Gal3S(b1-4)Glc
Procedure, shortened: as §1

Gal3S(b1-4)Glc6S = molecular target: Gal3S(b1-4)Glc6S
Procedure, shortened: as §1

Gal3S(b1-4)GlcNAc = molecular target: Gal3S(b1-4)GlcNAc
Procedure, shortened: as §1

[28] = molecular target: Gal3S(b1-4)[Fuc(a1-3)]Glc6S
Procedure, shortened: as §1

[29] = molecular target: Gal3S(b1-4)[Fuc(a1-3)]GlcNAc
Procedure, shortened: as §1

[30] = molecular target: Gal3S(b1-4)[Fuc(a1-3)]GlcNAc6S
Procedure, shortened: as §1

Gal3S4S(b1-4)GlcNAc = molecular target: Gal3S4S(b1-4)GlcNAc
Procedure, shortened: as §1

Gal3S6S(b1-4)GlcNAc = molecular target: Gal3S6S(b1-4)GlcNAc
Procedure, shortened: as §1

Gal3S6S(b1-4)GlcNAc6S = molecular target: Gal3S6S(b1-4)GlcNAc6S
Procedure, shortened: as §1

Gal4S(b1-4)GlcNAc = molecular target: Gal4S(b1-4)GlcNAc
Procedure, shortened: as §1

Gal4S6S(b1-4)GlcNAc = molecular target: Gal4S6S(b1-4)GlcNAc
Procedure, shortened: as §1

Gal6P(b1-4)GlcNAc = molecular target: Gal6P(b1-4)GlcNAc
Procedure, shortened: as §1

Gal6S(b1-3)GlcNAc = molecular target: Gal6S(b1-3)GlcNAc
Procedure, shortened: as §1

Gal6S(b1-3)GlcNAc6S = molecular target: Gal6S(b1-3)GlcNAc6S
Procedure, shortened: as §1

B1: BIp1-His (Cryptococcus neoformans) (protein)
chain: MFTKIFVALFAATAVLSAPVESAEKRITHTGRATFYSPSVGIGACGWQNTDEELVVALNAPQYALNADHNCGQSVRITNEQNGNQEIAKVVDLCPGCNDGDLDMSPALFGALNNNDFDQGVFPISWNFLPRDDTSSSN
- glycan array binding signal (z-score) [1]: 2.12
- glycan array binding signal (z-score) [2]: 1.75
- glycan array binding signal (z-score) [3]: 0.623
- glycan array binding signal (z-score) [4]: -0.308
- glycan array binding signal (z-score) [5]: 1.97
- glycan array binding signal (z-score) [6]: 1.55
- glycan array binding signal (z-score) [7]: 3.26
- glycan array binding signal (z-score) [8]: 0.684
- glycan array binding signal (z-score) [9]: 2.08
- glycan array binding signal (z-score) [10]: 0.595
- glycan array binding signal (z-score) [11]: 0.681
- glycan array binding signal (z-score) [12]: 0.357
- glycan array binding signal (z-score) [13]: 1.15
- glycan array binding signal (z-score) [14]: 0.308
- glycan array binding signal (z-score) [15]: 0.437
- glycan array binding signal (z-score) [16]: 1.63
- glycan array binding signal (z-score) [17]: 0.351
- glycan array binding signal (z-score) [18]: -0.074
- glycan array binding signal (z-score) [19]: -0.463
- glycan array binding signal (z-score) [20]: 1.66
- glycan array binding signal (z-score) [21]: -0.131
- glycan array binding signal (z-score) [22]: -0.866
- glycan array binding signal (z-score) [23]: -0.089
- glycan array binding signal (z-score) [24]: 0.303
- glycan array binding signal (z-score) [25]: -0.481
- glycan array binding signal (z-score) [26]: 0.499
- glycan array binding signal (z-score) (Gal(b1-4)GlcNAc6P): 0.46
- glycan array binding signal (z-score) (Gal(b1-6)Gal): -0.497
- glycan array binding signal (z-score) (Gal3S(b1-3)GalNAc): 0.365
- glycan array binding signal (z-score) (Gal3S(b1-3)GlcNAc): -0.073
- glycan array binding signal (z-score) [27]: 0.468
- glycan array binding signal (z-score) (Gal3S(b1-4)Glc): -0.094
- glycan array binding signal (z-score) (Gal3S(b1-4)Glc6S): 0.642
- glycan array binding signal (z-score) (Gal3S(b1-4)GlcNAc): 0.425
- glycan array binding signal (z-score) [28]: 1.75
- glycan array binding signal (z-score) [29]: -0.128
- glycan array binding signal (z-score) [30]: 1.26
- glycan array binding signal (z-score) (Gal3S4S(b1-4)GlcNAc): 0.045
- glycan array binding signal (z-score) (Gal3S6S(b1-4)GlcNAc): 0.853
- glycan array binding signal (z-score) (Gal3S6S(b1-4)GlcNAc6S): 1.12
- glycan array binding signal (z-score) (Gal4S(b1-4)GlcNAc): -0.25
- glycan array binding signal (z-score) (Gal4S6S(b1-4)GlcNAc): -0.804
- glycan array binding signal (z-score) (Gal6P(b1-4)GlcNAc): -1.05
- glycan array binding signal (z-score) (Gal6S(b1-3)GlcNAc): -0.386
- glycan array binding signal (z-score) (Gal6S(b1-3)GlcNAc6S): -0.624
